Measurements as given in PMC9144045.
These are yes or no findings as the source states them, for the method shown. In cells and extracts the contact can be indirect.

The chains behind the UniProt entries cited, without tags or fusion partners. Where a name states a change or a piece, a line headed by the entry shows the natural chain unless it says otherwise.
UniProt Q05655: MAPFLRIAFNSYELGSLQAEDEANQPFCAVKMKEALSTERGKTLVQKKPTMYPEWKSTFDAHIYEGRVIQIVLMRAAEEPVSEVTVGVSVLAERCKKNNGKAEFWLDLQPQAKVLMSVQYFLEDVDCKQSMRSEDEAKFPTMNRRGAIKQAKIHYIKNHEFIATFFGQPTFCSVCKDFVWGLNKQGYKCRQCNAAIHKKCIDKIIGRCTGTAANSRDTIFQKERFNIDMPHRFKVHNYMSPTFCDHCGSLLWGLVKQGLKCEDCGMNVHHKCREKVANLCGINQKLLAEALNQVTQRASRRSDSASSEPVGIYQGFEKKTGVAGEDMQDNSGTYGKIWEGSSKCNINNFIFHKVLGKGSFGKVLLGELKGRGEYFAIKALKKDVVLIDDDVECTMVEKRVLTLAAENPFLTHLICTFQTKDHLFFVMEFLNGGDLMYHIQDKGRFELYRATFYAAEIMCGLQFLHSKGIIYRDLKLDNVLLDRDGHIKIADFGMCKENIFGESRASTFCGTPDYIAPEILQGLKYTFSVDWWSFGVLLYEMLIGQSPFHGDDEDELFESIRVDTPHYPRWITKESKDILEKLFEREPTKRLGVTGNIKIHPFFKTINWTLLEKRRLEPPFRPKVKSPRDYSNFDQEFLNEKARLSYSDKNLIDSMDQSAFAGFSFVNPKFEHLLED
UniProt P09429: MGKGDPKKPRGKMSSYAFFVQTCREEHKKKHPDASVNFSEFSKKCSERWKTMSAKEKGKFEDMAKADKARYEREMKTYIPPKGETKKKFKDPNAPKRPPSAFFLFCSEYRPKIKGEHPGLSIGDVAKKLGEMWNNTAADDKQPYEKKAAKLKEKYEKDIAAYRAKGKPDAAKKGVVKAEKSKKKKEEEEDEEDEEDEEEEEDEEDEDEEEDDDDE

Target: PKCδ-Flag (UniProt Q05655)
Test: co-IP

binding: no binding
Substance: HMGB1-HA wild type (from UniProt P09429 1-215)
